According to publication doi:10.1101/108647:

Test system: MutLγ double mutant complexes (Saccharomyces cerevisiae (S288c, SKY4158))
Assay: EMSA
Settings: more affected than single mutants

Sequence	binding result
CTAGTATAGAGCCGGCGCGCCATGTCTAGATAGCGTTAGGTCTGCCGAATAGTACTACTCGGATCCCGAGCGAACCACGC / GCGTGGTTCGCTCGGGATCCGAGTAGTACTATTCGGCAGAGGATTCGAATAGGCCTAATCGAATTCCGCCATCGATGCAC / GTGCATCGATGGCGGAATTCGATTAGGCCTATTCGAATCCAGACGCGAGTAGATCTTCACGGTACCCGCGGTTACCCGTG / CACGGGTAACCGCGGGTACCGTGAAGATCTACTCGCGTCTCCTAACGCTATCTAGACATGGCGCGCCGGCTCTATACTAG [HJ80 (cb095/096/097/098)]	binds more weakly
TTTTTTTTTTTTTTTTTTTTTTTTTTTTTTTTTTTTTTTTTTTTTTTTTTTTTTTTTTTTTTTTTTTTTTTTTTTTTTTT [ssDNA80 (poly-dT, cb099)]	binds more weakly

For at least one entry, the source does not settle the construct or the ends of the probe. A weaker result is weaker than the reference pair of the same experiment.
